PubChem BioAssay AID1159584, Peter MacCallum Cancer Centre, 2016

Screen: 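Genes that CDH1-null MCF10A cells selectively depend on to survive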 (primary screen)
Cell system: human MCF10A breast epithelial cells, parental and CDH1-null
Reagents: siRNA against human genes
Read-out: 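Cell viability by CellTiter-Glo ATP luminescence, each line scaled to the mean of mock wells across plates, then CDH1-null over parental ratio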
Scale: CDH1-null / parental viability ratio: higher = CDH1-null cells survive relatively better than parental
The deposit covers about 18,000 reagents; this is a random part of them. Not all columns of the deposit are shown. The record does not give: the amount of reagent, the time to read-out.

With knock-down of FBXL13 (F-box and leucine rich repeat protein 13), the screen gave CDH1-null / parental viability ratio 0.81. Against TLL2 (tolloid like 2), the entry reads CDH1-null / parental viability ratio 1.25. For GON4L (gon-4 like) the deposit lists CDH1-null / parental viability ratio 0.88. DIS3 (DIS3 exosome endoribonuclease and 3'-5' exoribonuclease) scored CDH1-null / parental viability ratio 1.08. Depletion of NLRP3 (NLR family pyrin domain containing 3) resulted in: CDH1-null / parental viability ratio 1.06. Depletion of ZNF3 (zinc finger protein 3) gave: CDH1-null / parental viability ratio 1.28.

Silencing of GP1BA (glycoprotein Ib platelet subunit alpha) gave: CDH1-null / parental viability ratio 1.15. Against ACBD7 (acyl-CoA binding domain containing 7) the deposit lists CDH1-null / parental viability ratio 1.03. With knock-down of DPM1 (dolichyl-phosphate mannosyltransferase subunit 1, catalytic), the record shows CDH1-null / parental viability ratio 1.02. For RPS6 (ribosomal protein S6), the entry reads CDH1-null / parental viability ratio 0.81. With knock-down of TMEM120A (transmembrane protein 120A) the results were CDH1-null / parental viability ratio 1.21. NUDCD1 (NudC domain containing 1) scored CDH1-null / parental viability ratio 1.08.

Depletion of CLEC4F (C-type lectin domain family 4 member F) gave: CDH1-null / parental viability ratio 1.02. With knock-down of ALCAM (activated leukocyte cell adhesion molecule) the results were CDH1-null / parental viability ratio 1.05. After knock-down of SEC24A (SEC24 homolog A, COPII component), the record shows CDH1-null / parental viability ratio 0.9. Against CPOX (coproporphyrinogen oxidase), the entry reads CDH1-null / parental viability ratio 0.66. For SRP14 (signal recognition particle 14) the deposit lists CDH1-null / parental viability ratio 0.85. For CLTRN (collectrin, amino acid transport regulator), the values are CDH1-null / parental viability ratio 1.18.

For RHBDL3 (rhomboid like 3), the values are CDH1-null / parental viability ratio 1.18. PARD3B (par-3 family cell polarity regulator beta) showed CDH1-null / parental viability ratio 0.81. Depletion of ETV2 (ETS variant transcription factor 2) resulted in: CDH1-null / parental viability ratio 1.09. Depletion of RASSF3 (Ras association domain family member 3) gave: CDH1-null / parental viability ratio 1. For MTMR4 (myotubularin related protein 4), the values are CDH1-null / parental viability ratio 1.41. CRBN (cereblon) gave CDH1-null / parental viability ratio 1.11.

After knock-down of RFXANK (regulatory factor X associated ankyrin containing protein), the record shows CDH1-null / parental viability ratio 1.04. For LYSMD4 (LysM domain containing 4), the entry reads CDH1-null / parental viability ratio 0.98. After knock-down of AGA (aspartylglucosaminidase), the screen gave CDH1-null / parental viability ratio 0.85. Knock-down of EXPH5 (exophilin 5) resulted in: CDH1-null / parental viability ratio 1.29. With knock-down of DGKZ (diacylglycerol kinase zeta) the results were CDH1-null / parental viability ratio 1.1. Knock-down of APBB3 (amyloid beta precursor protein binding family B member 3) gave: CDH1-null / parental viability ratio 1.

With knock-down of LDLRAP1 (low density lipoprotein receptor adaptor protein 1), the screen gave CDH1-null / parental viability ratio 0.85. Knock-down of EDC3 (enhancer of mRNA decapping 3) came out at: CDH1-null / parental viability ratio 1.17. After knock-down of RNLS (renalase, FAD dependent amine oxidase) the results were CDH1-null / parental viability ratio 1.03. ANKRD36 (ankyrin repeat domain 36) scored CDH1-null / parental viability ratio 1.04. After knock-down of PPP2R5E (protein phosphatase 2 regulatory subunit B'epsilon), the record shows CDH1-null / parental viability ratio 1.1. After knock-down of KRTAP4-11 (keratin associated protein 4-11) the results were CDH1-null / parental viability ratio 1.42.

After knock-down of TAGLN (transgelin), the screen gave CDH1-null / parental viability ratio 0.98. Depletion of NFIC (nuclear factor I C) came out at: CDH1-null / parental viability ratio 0.65. Against NXNL1 (nucleoredoxin like 1), the entry reads CDH1-null / parental viability ratio 0.99. With knock-down of LYPLA2 (lysophospholipase 2) the results were CDH1-null / parental viability ratio 0.98. After knock-down of NES (nestin) the results were CDH1-null / parental viability ratio 1.41. For CYP4X1 (cytochrome P450 family 4 subfamily X member 1), the entry reads CDH1-null / parental viability ratio 0.88.

After knock-down of RTL8B (retrotransposon Gag like 8B), the record shows CDH1-null / parental viability ratio 1.3. For ACIN1 (apoptotic chromatin condensation inducer 1) the deposit lists CDH1-null / parental viability ratio 1.23. After knock-down of PMEL (premelanosome protein), the record shows CDH1-null / parental viability ratio 1.04.
